Measured values from patent US20040110684A1.
These are yes or no findings as the source states them, for the method shown. Binding seen in cells or lysates may run through a third protein. Some entries that bind do so weakly or less than the wild type.

Target: T1, endothelial nitric oxide synthase (eNOS), endogenous, rat aorta-derived endothelial cells (AoECs) (rat) (UniProt Q62600)
T1 sequence (looked up): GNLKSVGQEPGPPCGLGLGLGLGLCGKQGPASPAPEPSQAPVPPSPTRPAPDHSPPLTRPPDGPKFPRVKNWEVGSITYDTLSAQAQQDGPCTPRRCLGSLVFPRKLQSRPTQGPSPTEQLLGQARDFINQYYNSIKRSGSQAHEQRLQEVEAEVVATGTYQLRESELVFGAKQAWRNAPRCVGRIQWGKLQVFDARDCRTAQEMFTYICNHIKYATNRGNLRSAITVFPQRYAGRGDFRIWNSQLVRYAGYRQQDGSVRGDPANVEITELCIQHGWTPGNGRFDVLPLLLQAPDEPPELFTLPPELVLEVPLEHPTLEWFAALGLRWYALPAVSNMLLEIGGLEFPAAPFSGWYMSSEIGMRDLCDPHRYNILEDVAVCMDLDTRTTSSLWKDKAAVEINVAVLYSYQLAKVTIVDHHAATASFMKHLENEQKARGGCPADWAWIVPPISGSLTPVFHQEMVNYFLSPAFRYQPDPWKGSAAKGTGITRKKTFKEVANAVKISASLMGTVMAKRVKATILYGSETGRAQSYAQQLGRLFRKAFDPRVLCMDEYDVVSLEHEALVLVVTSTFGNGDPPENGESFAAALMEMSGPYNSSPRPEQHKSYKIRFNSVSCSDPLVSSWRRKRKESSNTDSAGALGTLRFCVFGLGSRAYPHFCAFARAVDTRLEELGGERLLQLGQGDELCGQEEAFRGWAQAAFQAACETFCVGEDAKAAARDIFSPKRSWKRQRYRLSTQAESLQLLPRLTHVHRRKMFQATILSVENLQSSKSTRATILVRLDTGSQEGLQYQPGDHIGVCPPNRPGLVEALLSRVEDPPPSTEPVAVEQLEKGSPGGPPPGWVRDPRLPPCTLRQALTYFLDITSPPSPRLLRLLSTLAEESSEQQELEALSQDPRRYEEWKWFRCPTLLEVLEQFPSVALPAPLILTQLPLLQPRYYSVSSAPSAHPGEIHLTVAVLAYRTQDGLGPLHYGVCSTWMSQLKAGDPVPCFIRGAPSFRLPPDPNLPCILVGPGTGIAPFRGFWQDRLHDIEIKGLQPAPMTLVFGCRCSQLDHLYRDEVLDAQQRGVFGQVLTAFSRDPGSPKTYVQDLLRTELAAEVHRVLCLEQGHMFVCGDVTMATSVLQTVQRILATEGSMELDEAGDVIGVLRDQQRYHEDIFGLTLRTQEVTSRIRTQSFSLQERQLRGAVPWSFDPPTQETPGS
Assay: co-IP with eNOS or caveolin antibodies, immunoblot, AoEC lysates

- binding: binds
B1: caveolin, endogenous, rat aorta-derived endothelial cells (AoECs) (protein, UniProt P41350 2-178, looked up)
chain: SGGKYVDSEGHLYTVPIREQGNIYKPNNKAMADEVNEKQVYDAHTKEIDLVNRDPKHLNDDVVKIDFEDVIAEPEGTHSFDGIWKASFTTFTVTKYWFYRLLSTIFGIPMALIWGIYFAILSFLHIWAVVPCIKSFLIEIQCISRVYSIYVHTFCDPLFEAIGKIFSNIRISTQEEI
